Values quoted from earlier work as cited in patent US7163702B1 (priority 2004, dated 2007).
Some of these results come from one statement about several compounds together.

Conditions: human, in vivo

In the case of `N=C(N)c1ccc(OCCCCCOc2ccc(C(=N)N)cc2)cc1` [pentamidine], the “effectiveness in AIDS patients” value is listed as 50–70%.
